Our source for the binding values is publication PMC12394070.

Amino acid sequences for entries named in this document (tags omitted).
UniProt Q13148: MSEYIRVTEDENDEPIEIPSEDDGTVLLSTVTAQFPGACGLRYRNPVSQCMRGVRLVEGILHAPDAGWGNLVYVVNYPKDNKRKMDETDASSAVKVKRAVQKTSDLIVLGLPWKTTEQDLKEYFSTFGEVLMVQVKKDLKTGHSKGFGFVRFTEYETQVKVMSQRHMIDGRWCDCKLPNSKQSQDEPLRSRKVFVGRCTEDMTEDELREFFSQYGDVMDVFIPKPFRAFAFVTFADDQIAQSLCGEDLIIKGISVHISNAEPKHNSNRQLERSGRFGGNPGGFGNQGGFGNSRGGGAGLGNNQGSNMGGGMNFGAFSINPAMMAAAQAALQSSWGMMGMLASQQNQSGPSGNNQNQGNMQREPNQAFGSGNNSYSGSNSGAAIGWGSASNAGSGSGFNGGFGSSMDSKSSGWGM
UniProt P29590: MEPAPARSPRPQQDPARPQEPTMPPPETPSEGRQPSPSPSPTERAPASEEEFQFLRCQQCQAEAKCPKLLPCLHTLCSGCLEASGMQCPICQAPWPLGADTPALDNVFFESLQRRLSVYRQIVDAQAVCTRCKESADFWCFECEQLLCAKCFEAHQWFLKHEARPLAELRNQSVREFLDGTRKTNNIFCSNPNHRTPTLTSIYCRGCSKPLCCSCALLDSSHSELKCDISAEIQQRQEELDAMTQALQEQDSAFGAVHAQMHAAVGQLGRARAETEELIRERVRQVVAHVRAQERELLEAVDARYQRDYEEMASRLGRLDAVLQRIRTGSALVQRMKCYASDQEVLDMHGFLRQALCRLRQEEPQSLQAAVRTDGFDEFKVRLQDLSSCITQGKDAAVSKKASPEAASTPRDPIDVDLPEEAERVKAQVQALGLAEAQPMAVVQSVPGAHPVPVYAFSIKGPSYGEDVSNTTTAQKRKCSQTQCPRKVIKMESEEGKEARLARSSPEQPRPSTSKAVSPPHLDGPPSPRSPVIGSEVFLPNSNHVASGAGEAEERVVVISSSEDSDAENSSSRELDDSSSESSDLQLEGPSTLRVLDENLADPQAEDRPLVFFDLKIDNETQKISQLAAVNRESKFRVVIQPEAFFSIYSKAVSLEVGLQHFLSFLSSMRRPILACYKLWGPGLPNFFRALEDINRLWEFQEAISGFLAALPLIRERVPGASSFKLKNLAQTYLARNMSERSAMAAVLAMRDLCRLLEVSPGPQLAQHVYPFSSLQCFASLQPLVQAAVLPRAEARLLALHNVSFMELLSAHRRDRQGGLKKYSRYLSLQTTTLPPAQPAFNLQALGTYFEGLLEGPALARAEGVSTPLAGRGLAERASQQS

These are yes or no findings as the source states them, for the method shown. In cells and extracts the contact can be indirect. Some binding calls cover weakened binding; strength is not graded here.

Assay [1] addresses Flag-tagged wild-type (WT) TDP-43 (UniProt Q13148). Kind of assay: co-IP; Flag-IP under nondenaturing conditions (anti-Flag agarose, 2–3 h, 4 °C, elution with Flag peptide) from HEK293T cells transfected for 48 h; IP lysis buffer 50 mM HEPES, 150 mM NaCl, 1% Triton; coprecipitated proteins detected by immunoblot. In general terms: A western blot detects proteins with antibodies after separation by electrophoresis.

In assay [2] the target is endogenous TDP-43 (human (endogenous in HEK293T)) (UniProt Q13148). Kind of assay: co-IP; IP of endogenous TDP-43 from HEK293T lysates with TDP-43-specific antibodies or rabbit IgG on protein A/G magnetic beads; coprecipitated PML detected by immunoblot.

“endogenous PML (promyelocytic leukemia protein) (from UniProt P29590 1-882)”: the binding entry in assay [1] is given as “binds”; in assay [2], “binds weakly”.
